No constants are given. Whether binding was seen depends on the method and setting. In cells and extracts the contact can be indirect. Some binding calls cover weakened binding; strength is not graded here.

In paper PMC8790872 one finds binding data, which are given here for 1 substance.

This assay deals with T1, Nuclear factor of activated T cell 1 (NFAT1) (human (in 786-O and ACHN cells)) (UniProt Q13469).
T1 sequence: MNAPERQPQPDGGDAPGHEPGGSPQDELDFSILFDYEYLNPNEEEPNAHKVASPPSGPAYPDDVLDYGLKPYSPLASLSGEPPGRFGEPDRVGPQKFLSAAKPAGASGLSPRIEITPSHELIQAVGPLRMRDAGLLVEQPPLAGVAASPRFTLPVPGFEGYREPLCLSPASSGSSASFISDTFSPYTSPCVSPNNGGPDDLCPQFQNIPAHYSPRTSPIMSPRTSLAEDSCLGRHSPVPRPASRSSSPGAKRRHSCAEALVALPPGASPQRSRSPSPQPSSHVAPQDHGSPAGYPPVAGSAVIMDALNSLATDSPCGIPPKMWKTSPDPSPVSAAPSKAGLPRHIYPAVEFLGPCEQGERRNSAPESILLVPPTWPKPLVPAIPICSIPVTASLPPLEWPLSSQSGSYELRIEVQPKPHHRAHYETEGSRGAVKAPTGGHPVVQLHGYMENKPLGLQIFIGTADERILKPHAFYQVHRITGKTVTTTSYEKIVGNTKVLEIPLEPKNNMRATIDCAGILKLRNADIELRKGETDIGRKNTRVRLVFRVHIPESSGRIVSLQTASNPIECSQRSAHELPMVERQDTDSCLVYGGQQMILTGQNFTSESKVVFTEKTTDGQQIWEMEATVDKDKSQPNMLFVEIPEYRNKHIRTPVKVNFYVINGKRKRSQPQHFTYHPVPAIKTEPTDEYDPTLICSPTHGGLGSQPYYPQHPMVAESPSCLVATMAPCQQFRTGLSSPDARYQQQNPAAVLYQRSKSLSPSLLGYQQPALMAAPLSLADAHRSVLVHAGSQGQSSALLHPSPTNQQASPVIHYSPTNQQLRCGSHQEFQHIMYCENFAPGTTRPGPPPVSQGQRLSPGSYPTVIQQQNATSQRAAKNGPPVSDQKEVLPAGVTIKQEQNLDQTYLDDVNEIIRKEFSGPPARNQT
Briefly: co-IP; lysates of renal cancer cells (786-O, ACHN); antibodies listed for IP: NFAT1 1:50, GSK-3β 1:50, Myc tag 1:50; detailed methods in the supplementary information.

As for “F-box and WD repeat domain containing 7 (FBW7) (from UniProt Q969H0-1 1-707)”, the binding result was “binds”.
